The results in this text go back to paper PMC11671597, “The anticancer effect of metformin targets VDAC1 via ER-mitochondria interactions-mediated autophagy in HCC” (Experimental & Molecular Medicine, 2024).

Protein sequences, listed by entry. Tags and fused reporters are not part of them. Residues count along the entry.
UniProt P21796: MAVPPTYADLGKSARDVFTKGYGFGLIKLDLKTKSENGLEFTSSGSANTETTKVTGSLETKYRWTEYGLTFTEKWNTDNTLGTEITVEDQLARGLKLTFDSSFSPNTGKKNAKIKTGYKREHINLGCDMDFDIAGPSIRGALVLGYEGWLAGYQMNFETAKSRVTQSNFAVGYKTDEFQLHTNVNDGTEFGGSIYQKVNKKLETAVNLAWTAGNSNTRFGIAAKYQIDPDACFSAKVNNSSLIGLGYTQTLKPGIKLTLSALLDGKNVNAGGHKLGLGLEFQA
UniProt O95292: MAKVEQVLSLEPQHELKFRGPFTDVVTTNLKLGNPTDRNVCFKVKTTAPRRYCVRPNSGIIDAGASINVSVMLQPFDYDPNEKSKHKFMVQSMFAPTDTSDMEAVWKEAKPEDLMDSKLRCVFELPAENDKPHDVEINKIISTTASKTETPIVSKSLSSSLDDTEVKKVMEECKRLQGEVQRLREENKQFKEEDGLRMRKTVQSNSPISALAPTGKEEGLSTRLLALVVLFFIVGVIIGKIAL
UniProt P38646, residues 47-679: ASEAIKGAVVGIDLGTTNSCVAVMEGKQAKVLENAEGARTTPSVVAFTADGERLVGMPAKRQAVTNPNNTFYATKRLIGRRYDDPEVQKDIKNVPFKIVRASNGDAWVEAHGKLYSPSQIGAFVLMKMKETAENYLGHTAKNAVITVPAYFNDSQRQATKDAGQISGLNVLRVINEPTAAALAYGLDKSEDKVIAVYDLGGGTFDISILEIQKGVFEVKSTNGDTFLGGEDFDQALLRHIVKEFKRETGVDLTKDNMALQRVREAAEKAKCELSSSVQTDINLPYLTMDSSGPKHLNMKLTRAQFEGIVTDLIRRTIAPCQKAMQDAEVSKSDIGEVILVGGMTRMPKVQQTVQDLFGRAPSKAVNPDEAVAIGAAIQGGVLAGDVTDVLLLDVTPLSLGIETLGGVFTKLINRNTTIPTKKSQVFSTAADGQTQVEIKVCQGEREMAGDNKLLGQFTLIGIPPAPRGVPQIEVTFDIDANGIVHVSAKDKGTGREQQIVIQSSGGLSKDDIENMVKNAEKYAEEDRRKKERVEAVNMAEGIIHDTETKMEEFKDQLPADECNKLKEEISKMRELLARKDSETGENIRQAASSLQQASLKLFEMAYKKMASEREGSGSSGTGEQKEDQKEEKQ

For test [1], the target named is T1, PTPIP51 (human (endogenous in HepG2)) (UniProt Q96TC7).
T1 sequence: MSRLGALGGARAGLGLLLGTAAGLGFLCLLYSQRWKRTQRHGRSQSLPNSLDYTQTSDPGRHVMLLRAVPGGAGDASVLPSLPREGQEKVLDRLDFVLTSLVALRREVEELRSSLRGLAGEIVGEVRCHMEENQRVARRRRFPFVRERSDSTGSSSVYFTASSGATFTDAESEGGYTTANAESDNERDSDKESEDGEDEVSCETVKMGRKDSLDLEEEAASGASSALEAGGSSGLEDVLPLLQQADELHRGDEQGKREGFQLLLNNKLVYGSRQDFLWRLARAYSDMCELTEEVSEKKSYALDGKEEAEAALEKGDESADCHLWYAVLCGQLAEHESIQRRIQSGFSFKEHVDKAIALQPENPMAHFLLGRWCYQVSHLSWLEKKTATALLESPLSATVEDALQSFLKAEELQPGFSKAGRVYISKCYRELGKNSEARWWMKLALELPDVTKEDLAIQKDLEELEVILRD
The test can be described thus: proximity ligation; in situ PLA (Duolink In Situ Red Starter Kit) on endogenous proteins in HepG2 cells, confocal microscopy; cells untreated or treated with MetF (0.3 mM, 4 h) or with VDAC1 knockdown for 24 h.

The target of test [2] is voltage-dependent anion channel 1 (VDAC1) (human (endogenous in HepG2)) (UniProt P21796). The description is as above.

No constants are given. Whether binding was seen depends on the method and setting. In cells and extracts the contact can be indirect. Some results given as binding are weak or reduced against the parent protein; the word gives no strength.

With VAPB (from UniProt O95292 1-243), the binding entry in test [1] is given as “binds”. On to GRP75 (from UniProt P38646 47-679), for which the binding result in test [2] is recorded as “binds”.
